# In the supplement of paper PMC3334620:
# Whole data set: some 33,000 sequences, median “E-score (-0.5 to 0.5)” near -0.015, cut for the highest 2% near 0.3. The list shows a part of the results.
# Target: T1, Abf1 (UniProt P14164)
# T1 sequence: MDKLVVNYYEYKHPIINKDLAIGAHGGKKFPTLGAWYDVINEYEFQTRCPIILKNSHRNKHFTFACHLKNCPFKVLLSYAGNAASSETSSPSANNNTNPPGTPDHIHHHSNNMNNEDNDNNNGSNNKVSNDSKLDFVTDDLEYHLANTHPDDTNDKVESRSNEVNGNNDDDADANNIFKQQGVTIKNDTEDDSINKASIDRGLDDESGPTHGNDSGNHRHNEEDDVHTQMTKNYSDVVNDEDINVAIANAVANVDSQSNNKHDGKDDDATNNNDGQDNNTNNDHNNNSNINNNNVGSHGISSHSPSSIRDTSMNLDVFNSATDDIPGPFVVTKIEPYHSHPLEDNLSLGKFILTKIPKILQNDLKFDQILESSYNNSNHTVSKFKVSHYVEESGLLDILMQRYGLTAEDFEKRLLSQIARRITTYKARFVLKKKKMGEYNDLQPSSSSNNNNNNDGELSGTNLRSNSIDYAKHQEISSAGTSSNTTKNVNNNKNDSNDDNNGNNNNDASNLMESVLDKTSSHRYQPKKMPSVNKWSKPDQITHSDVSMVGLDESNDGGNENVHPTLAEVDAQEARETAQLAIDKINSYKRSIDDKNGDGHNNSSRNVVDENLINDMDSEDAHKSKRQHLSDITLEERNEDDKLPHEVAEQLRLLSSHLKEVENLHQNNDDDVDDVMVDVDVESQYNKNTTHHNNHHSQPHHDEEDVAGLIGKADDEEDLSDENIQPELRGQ
# Experiment: PBM E-score (8-mer binding enrichment) (E-score (-0.5 to 0.5)); higher = stronger / more preferred TF binding
# Conditions: protein concentration: 200 nM; construct: GST-full length
# How it was run: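 Universal all-10-mer Agilent arrays, double-stranded by primer extension on fresh or once-stripped slides, were probed with about 100-200 nM GST-tagged yeast transcription factors made by PURExpress. Fluorescent anti-GST detected bound protein, and masliner normalised the scans. E-scores from the Universal PBM Analysis Suite were given to each ungapped eight-base word pooled with its reverse complement.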
row,Sequence,PBM E-score
1,AAGACCAA,-0.0328
2,CTAGTCGA,-0.0388
3,ACCAGACA,0.0437
4,GACCATGA,-0.0131
5,CTGAACCA,-0.0203
6,TGAATCCA,-0.0732
7,TGCAGACA,0.167
8,AAGGCTGC,-0.172
9,CTTTCAGA,0.0967
10,CAACGAGC,-0.0921
11,AATCGTGC,0.311
12,GTCCAAAA,0.137
13,AACGACAT,0.346
14,AAAAAGTC,0.164
15,AATGCCTA,-0.212
16,CGACGGCG,0.171
17,ACTTACCT,-0.165
18,CGCCAATA,0.0937
19,AGTGAGAC,-0.0345
20,TCATGGGA,-0.042
21,CTAGGCGC,-0.152
22,GAAGTAAA,-0.0612
23,AACTTGAT,0.154
24,GGACGTAC,-0.0265
25,AGTAGTAT,0.201

row,Sequence,PBM E-score
1,CTATACCA,0.0431
2,CGAGTCAG,-0.0718
3,CAGCTGAG,-0.15
4,ACAGCAGC,-0.0608
5,CACTCCAG,0.00717
6,ACTGACTC,-0.262
7,GATCCATA,0.127
8,CTGAGGTC,-0.0477
9,CAAGTGAC,0.242
10,CTGGGTTA,-0.201
11,GAGGTTCC,-0.0902
12,CCTCTTGC,-0.173
13,GAACGCCA,0.121
14,ACCCGGTA,0.121
15,TGCTTGAA,0.135
16,AATTAACC,-0.113
17,AAAGCTAT,0.00198
18,CATAGAGC,-0.173
19,AATGCACC,0.0699
20,CTGGAAGC,-0.207
21,AAAGGCCA,0.0628
22,AGCAACGC,0.0101
23,ACATTACA,-0.036
24,ACCAGTAA,0.0174
25,ATACGACA,0.296

# Looked up one by one from the entries so far (3):
row,Sequence,PBM E-score
9,CAAGTGAC,0.242
13,AACGACAT,0.346
17,ACTTACCT,-0.165

# (cont.)

row,Sequence,PBM E-score
1,ATAAGAAT,0.228
2,TAACTCAA,0.0402
3,CCTTGCAG,-0.321
4,GCGAACAC,-0.139
5,ATCTGCTG,0.0114
6,ATATGCGA,0.097
7,GGCCTCAC,-0.0867
8,AAACTGTG,-0.0181
9,GATGACAA,0.369
10,AGGCGCTC,-0.149
11,CTCACCTC,-0.0127
12,CCAGGGGC,-0.331
13,CTCCCCCA,-0.434
14,CATTGTGA,0.0908
15,CCTCGGGC,-0.189
16,CCACATTA,-0.0566
17,ACGGAGGA,0.0287
18,CGCGAGTA,0.00902
19,AACGACGG,0.249
20,CTTTGTCC,0.0656
21,CAGCTCAC,-0.0246
22,CAATCTGA,-0.0186
23,CCCGCCCA,-0.209
24,ACCCCGCC,-0.165
25,ACCAACAG,-0.186

# As entered above.
# PBM E-score with ACCAGACA is entered as 0.0437
# PBM E-score with AACGACGG is entered as 0.249
# PBM E-score with CTTTGTCC is entered as 0.0656

# Additional results.

row,Sequence,PBM E-score
1,AACCTGGT,-0.0957
2,ACCAGGAA,-0.0084
3,ACACCCCT,-0.297
4,ACTAGCCT,0.0918
5,GGCAGACC,-0.274
6,GCGTACCA,-0.0406
7,AGTGGCGC,-0.00387
8,ACCTTCGT,0.174
9,CGTCAGAA,0.273
10,CTCTTTCA,-0.214
11,AGGGTGTG,-0.214
12,GAGTCGGC,-0.185
13,CTCCATGC,-0.265
14,AAATGCTT,-0.0227
15,AATCCGCC,-0.0359
16,CCGATCGG,-0.0901
17,GTTCGGAA,-0.0956
18,GGCTAGGA,-0.186
19,ACGGATGA,0.18
20,TCAGCACA,0.0736
21,ATCCAGAT,-0.0476
22,ACGTTAGT,0.218
23,CCCCTTCA,-0.243
24,AAATAGCC,-0.0941
25,CAGATCCG,-0.136

row,Sequence,PBM E-score
1,GGCAGCAC,-0.232
2,CTTGGAAC,0.0196
3,CACAACTG,-0.072
4,GCGGCGCA,0.0484
5,ATTGGTGC,-0.0454
6,GAACAAGA,0.102
7,CTATACAA,0.00856
8,TAATAATA,0.218
9,GGTCCGGA,-0.131
10,CGATGTTC,-0.012
11,TAGGCTCA,-0.177
12,CAGCACCA,-0.243
13,CGGAGCGC,-0.166
14,GTTCTGAA,-0.0245
15,GAGGAGCA,-0.128
16,ACTAAGTG,0.108
17,TCTTGACA,0.0364
18,CGGTCTAA,-0.103
19,CGGGCGTA,-0.161
20,CCAGAACA,-0.113
21,GCAAAGCC,-0.2
22,AAAACTAG,-0.0309
23,ATCGTTTC,0.325
24,GCGTTCTA,-0.12
25,AAAGATGG,0.00619

row,Sequence,PBM E-score
1,CATTATCC,0.262
2,CACGGTAC,0.234
3,CCTGCACC,-0.268
4,GAAGTATA,0.105
5,GAGCATGA,0.035
6,AACCGCTA,-5e-05
7,CGTCAAAC,0.0928
8,AAGTCGAA,-0.139
9,CGCTGCGC,-0.261
10,ATCAATAA,0.127
11,GCTGTCCA,0.0906
12,TCAGTCCA,-0.171
13,CTTTGAAA,0.0687
14,AAGCTAGT,-0.0558
15,AACCAATT,0.0773
16,CCAGTTCC,-0.219
17,CGGCGGCA,-0.051
18,CGGCAGTC,-0.0776
19,TATAGCCA,0.0353
20,ATCTCGCC,-0.00195
21,TCCGGCCA,-0.121
22,ATACGTTG,0.0885
23,CGCATCAC,0.263
24,AAACCTTT,-0.105
25,CATGTCGA,-0.00302

row,Sequence,PBM E-score
1,TAATTTGA,0.002
2,AAAGATCT,-0.0519
3,TACTTATA,0.0782
4,ACTAGTGG,0.0317
5,AGTCTGTC,-0.192
6,AGAGACGG,0.203
7,AGGTGTGA,-0.255
8,CGACGCAA,-0.0887
9,TCGCCGCA,0.052
10,AAGAGGGA,-0.181
11,ATAGCAAC,-0.0858
12,CCAGTTTA,-0.172
13,TAATACCA,0.244
14,AGCGTCGG,-0.0578
15,ACAGAGAG,-0.223
16,AACTTCTA,0.123
17,CCATGTTA,0.0249
18,AGCGATAG,0.0445
19,CCTCGTAA,0.131
20,ACGAGACC,0.035
21,CGCAGGCG,-0.137
22,AGGACCTA,-0.0385
